Measured values: US20230303648A1 (OSE IMMUNOTHERAPEUTICS, published 2023)
These are yes or no findings as the source states them, for the method shown. Some entries that bind do so weakly or less than the wild type.

The chains behind the UniProt entries cited, without tags or fusion partners. Where a name states a change or a piece, a line headed by the entry shows the natural chain unless it says otherwise. Residues count along the entry.
UniProt Q15116, residues 25-167: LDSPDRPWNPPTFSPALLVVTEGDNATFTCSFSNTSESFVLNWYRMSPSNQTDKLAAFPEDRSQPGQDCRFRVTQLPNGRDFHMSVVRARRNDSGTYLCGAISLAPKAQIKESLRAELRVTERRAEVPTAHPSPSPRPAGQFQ

Target: recombinant human PD-1 (rPD1; Sino Biologicals, reference 10377-H08H) (human) (UniProt Q15116)
Experiment: ELISA, recombinant human PD-1 immobilised, anti-human Fc-peroxidase, TMB

- binding: binds
B1: anti-PD1*2 (control antibody without any IL7) (antibody, IgG4, V domains shown)
VH: QIQLVQSGSELKKPGASVKVSCKASGYTFTHYAMNWVRQAPGQGLEWMGWINTNTGEPTYAQGFTGRFVFSLDTSVSTAYLQISSLKAEDTAVYYCAREREPGMDNWGQGTLVTVSS
VL: DVVMTQSPLSLPVTLGQPASISCRSSQSLVHANTNTYLEWYQQRPGQSPRLLIYKVSNRFSGVPDRFSGSGSGTDFTLKISRVEAEDVGVYYCFQGTHVPNTFGQGTKLEIKR
notes: two anti PD-1 arms
